Test results as given in the supplement of paper PMC10849652.
The list shows a part of the results.

The chains behind the UniProt entries cited, without tags or fusion partners. Where a name states a change or a piece, a line headed by the entry shows the natural chain unless it says otherwise.
UniProt Q9C0C2: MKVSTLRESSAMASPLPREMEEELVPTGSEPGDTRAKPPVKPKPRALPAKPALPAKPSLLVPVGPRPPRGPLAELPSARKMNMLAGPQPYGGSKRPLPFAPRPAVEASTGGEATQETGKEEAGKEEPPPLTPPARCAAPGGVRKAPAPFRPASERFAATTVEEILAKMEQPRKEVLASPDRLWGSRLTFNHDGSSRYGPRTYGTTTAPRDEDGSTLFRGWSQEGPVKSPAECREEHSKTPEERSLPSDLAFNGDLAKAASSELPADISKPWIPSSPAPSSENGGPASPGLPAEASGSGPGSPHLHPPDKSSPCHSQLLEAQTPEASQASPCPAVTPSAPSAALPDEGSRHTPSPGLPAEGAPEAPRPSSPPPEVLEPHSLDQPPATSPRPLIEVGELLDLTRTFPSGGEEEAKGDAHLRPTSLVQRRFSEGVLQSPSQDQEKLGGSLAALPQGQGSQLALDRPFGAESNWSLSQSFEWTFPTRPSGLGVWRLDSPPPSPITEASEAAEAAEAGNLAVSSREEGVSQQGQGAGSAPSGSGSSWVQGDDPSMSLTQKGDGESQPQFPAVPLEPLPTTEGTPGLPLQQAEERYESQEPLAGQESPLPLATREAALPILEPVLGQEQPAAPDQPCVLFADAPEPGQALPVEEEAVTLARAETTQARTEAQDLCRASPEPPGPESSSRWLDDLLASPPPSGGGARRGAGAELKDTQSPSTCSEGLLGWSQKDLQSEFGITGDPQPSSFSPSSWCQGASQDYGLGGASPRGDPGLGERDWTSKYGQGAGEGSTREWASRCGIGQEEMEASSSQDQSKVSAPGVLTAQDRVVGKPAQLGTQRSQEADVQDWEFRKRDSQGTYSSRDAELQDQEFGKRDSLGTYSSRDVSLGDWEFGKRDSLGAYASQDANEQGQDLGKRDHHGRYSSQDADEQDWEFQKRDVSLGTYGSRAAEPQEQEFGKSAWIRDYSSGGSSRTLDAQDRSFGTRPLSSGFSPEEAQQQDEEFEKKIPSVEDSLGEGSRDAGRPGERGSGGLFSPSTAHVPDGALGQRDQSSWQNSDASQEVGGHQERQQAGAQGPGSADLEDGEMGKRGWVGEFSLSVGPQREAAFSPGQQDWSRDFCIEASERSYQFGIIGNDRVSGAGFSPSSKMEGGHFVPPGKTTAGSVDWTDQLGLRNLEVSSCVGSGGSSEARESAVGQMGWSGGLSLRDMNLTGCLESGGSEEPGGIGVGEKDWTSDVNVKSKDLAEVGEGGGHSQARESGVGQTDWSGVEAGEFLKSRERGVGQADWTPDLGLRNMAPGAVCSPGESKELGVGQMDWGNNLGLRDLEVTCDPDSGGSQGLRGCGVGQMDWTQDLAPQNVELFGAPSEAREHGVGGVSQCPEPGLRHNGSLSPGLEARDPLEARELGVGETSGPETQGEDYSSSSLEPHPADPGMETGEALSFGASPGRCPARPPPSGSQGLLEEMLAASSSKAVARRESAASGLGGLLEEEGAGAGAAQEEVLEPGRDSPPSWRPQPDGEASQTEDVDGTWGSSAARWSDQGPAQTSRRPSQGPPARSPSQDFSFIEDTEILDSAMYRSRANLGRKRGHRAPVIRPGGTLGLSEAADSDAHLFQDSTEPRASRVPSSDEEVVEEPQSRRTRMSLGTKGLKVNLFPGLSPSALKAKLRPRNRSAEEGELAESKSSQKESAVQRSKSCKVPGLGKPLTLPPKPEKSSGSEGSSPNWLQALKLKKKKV
UniProt O75157: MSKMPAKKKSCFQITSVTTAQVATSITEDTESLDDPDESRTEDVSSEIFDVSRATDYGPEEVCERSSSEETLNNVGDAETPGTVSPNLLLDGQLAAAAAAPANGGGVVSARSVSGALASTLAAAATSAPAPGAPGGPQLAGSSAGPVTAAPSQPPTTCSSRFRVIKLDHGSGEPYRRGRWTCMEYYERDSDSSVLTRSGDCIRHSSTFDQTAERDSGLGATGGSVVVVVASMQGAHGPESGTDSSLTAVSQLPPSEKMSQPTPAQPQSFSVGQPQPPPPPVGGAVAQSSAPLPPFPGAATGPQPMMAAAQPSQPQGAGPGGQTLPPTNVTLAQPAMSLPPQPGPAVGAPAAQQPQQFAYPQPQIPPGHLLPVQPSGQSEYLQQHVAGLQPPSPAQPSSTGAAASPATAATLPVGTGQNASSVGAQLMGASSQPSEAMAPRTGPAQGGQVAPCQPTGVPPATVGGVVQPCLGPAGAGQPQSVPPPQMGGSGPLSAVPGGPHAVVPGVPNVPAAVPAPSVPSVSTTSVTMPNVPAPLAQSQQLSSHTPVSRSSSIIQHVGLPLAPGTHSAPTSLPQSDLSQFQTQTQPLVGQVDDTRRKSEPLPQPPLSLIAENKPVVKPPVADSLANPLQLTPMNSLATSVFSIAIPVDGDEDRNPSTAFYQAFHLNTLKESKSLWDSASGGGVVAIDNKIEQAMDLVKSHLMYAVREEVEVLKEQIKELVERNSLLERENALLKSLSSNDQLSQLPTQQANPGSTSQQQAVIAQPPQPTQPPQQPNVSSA
UniProt Q9UJA5: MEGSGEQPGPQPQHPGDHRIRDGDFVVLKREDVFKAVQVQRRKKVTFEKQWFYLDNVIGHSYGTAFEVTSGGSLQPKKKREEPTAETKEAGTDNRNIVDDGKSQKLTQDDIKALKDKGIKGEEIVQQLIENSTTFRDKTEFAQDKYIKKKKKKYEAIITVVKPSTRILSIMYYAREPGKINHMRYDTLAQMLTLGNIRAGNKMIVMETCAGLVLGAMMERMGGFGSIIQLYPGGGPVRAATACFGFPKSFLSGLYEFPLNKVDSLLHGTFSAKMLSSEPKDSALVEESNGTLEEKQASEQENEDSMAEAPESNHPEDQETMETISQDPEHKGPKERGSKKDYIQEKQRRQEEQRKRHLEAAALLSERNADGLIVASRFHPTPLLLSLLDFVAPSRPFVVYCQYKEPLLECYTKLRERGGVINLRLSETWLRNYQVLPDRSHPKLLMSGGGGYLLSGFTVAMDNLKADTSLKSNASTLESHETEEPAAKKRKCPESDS
UniProt O43399: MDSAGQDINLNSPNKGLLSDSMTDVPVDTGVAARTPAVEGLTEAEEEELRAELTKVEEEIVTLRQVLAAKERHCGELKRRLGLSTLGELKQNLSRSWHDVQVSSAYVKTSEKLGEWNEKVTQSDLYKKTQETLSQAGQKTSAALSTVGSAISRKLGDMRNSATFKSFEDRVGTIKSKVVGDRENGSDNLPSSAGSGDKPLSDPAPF
UniProt O95985: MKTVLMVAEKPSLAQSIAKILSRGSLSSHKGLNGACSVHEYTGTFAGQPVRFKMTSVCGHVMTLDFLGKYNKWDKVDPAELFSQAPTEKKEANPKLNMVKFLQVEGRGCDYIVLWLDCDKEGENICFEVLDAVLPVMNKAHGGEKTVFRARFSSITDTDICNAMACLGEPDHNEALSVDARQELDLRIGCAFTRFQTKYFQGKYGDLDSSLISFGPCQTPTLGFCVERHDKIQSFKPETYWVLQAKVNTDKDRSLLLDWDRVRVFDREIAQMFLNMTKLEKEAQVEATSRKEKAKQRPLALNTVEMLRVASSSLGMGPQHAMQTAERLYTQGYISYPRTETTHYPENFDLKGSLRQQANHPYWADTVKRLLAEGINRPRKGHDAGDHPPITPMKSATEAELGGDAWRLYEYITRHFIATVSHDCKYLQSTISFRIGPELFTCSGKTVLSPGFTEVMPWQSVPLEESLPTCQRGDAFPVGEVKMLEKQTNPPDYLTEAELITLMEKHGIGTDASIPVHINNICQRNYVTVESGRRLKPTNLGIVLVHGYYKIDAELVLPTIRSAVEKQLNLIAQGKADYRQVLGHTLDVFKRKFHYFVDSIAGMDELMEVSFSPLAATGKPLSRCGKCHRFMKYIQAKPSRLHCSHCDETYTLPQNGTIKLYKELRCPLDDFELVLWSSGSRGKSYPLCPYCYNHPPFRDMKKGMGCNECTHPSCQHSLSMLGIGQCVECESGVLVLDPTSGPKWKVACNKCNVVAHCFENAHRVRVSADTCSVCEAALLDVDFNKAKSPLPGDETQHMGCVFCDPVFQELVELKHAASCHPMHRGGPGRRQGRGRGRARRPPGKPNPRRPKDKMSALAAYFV
UniProt Q02880: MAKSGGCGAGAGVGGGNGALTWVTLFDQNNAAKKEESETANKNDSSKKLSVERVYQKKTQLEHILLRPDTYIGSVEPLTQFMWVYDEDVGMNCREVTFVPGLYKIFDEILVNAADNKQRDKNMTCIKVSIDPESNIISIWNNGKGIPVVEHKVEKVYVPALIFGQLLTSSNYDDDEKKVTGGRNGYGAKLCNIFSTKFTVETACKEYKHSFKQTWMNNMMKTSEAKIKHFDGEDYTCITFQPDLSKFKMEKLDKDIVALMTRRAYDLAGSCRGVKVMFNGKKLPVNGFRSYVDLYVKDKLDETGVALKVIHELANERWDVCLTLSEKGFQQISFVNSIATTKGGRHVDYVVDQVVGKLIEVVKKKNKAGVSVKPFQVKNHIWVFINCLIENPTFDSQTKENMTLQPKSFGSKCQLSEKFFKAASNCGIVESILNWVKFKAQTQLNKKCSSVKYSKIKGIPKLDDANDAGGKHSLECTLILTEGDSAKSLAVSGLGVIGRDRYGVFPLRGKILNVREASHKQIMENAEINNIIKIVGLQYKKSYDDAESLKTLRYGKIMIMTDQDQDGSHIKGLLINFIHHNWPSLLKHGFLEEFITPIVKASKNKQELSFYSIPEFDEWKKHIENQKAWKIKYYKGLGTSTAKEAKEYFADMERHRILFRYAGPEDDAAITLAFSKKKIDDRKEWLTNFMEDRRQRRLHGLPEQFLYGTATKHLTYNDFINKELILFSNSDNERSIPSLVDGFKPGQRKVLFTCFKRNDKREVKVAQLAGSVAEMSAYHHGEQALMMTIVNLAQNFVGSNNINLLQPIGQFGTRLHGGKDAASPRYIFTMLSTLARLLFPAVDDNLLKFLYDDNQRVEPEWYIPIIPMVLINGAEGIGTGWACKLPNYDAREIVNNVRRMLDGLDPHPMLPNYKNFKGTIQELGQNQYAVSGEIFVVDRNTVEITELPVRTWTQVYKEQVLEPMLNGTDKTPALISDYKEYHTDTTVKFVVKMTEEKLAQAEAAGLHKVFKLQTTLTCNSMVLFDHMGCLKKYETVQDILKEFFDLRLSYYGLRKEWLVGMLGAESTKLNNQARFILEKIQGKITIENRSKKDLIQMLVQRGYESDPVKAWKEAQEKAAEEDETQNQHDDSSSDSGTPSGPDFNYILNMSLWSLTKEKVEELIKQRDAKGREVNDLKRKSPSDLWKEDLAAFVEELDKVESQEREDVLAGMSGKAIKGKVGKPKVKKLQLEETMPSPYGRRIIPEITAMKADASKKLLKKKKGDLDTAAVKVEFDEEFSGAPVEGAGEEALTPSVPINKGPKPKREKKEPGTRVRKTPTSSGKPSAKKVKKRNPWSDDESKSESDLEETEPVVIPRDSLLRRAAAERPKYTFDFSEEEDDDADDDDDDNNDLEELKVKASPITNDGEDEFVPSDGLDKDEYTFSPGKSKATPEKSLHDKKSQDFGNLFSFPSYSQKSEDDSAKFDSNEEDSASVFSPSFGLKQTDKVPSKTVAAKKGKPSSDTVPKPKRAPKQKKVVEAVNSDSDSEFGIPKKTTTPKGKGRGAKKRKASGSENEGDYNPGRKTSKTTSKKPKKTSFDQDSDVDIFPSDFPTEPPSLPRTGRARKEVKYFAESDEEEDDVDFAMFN
UniProt Q9BRZ2: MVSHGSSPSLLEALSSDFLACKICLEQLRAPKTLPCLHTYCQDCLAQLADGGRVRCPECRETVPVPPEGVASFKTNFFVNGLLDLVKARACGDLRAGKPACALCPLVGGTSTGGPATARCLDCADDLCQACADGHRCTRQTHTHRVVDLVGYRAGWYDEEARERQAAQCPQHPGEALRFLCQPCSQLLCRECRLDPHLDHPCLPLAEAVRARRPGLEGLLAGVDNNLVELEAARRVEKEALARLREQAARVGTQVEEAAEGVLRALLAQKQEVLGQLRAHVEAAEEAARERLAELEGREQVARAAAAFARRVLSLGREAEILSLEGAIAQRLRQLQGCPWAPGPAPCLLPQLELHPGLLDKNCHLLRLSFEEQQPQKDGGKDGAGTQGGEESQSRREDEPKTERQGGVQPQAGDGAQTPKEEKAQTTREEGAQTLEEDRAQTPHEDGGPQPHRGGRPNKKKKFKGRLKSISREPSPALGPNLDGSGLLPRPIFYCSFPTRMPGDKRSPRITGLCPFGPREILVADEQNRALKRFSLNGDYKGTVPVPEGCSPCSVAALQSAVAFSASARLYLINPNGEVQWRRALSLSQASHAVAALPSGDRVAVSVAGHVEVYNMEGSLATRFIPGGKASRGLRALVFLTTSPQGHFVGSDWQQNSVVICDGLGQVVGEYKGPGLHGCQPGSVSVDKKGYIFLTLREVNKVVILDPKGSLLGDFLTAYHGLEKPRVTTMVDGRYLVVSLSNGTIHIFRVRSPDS

Key:
Assay in all cases: log2 fold change, soluble protein after heating vs DMSO (PISA); higher = thermal stabilisation; K562 cells, 10 uM, 30 min; active = over 0.2 and 3.5 SD of the protein, either way, in both replicates (recomputed)
[1] = compound: CS(=O)(=O)c1ccc(-c2cnc(N)c(C(=O)Nc3ccccc3)n2)cc1
Procedure, shortened: (§1)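 Values are thermal stability changes relative to control samples and are taken from duplicates. They are stated as log2 fold changes. Before quantification by TMTpro 16plex LC-MS/MS with equalised channel sums, K562 cells at 2×10^6 cells/mL were treated with 10 μM compound for 30 min, heated in aliquots for 3 min across 48°C-58°C, pooled, extracted in PBS with 0.5% NP-40 at 4°C, and centrifuged at 21,000xg for 90 min to give the soluble supernatant.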

[2] = compound: C[C@@H](Oc1cc(-c2cnn(C3CCNCC3)c2)cnc1N)c1c(Cl)ccc(F)c1Cl [crizotinib]
Procedure, shortened: as §1

[3] = compound: C[C@@H]1COCCN1C2=NC(=NC(=C2)C3(CC3)S(=O)(=O)C)C4=C5C=CNC5=CC=C4
Procedure, shortened: as §1

[4] = compound: C[C@H](C1=CC=C(C=C1)C(=O)NC2=C3C=CNC3=NC=C2)N
Procedure, shortened: as §1

[5] = compound: C[C@H](Nc1ncnc2nc[nH]c12)c1cc2cccc(Cl)c2c(=O)n1-c1ccccc1 [duvelisib]
Procedure, shortened: as §1

[6] = compound: Cc1cc(Nc2cc(CN3CCOCC3)c3nc(C)c(Cc4ccc(Cl)cc4F)n3n2)n[nH]1 [gandotinib]
Procedure, shortened: as §1

[7] = compound: Cc1cc(Nc2cc(N3CCN(C)CC3)nc(Sc3ccc(NC(=O)C4CC4)cc3)n2)n[nH]1 [tozasertib]
Procedure, shortened: as §1

[8] = compound: Cc1cc(SCc2sc(-c3ccc(C(F)(F)F)cc3)nc2C)ccc1OCC(=O)O
Procedure, shortened: as §1

[9] = compound: Cc1ccc(-n2nc(C(C)(C)C)cc2NC(=O)Nc2ccc(OCCN3CCOCC3)c3ccccc23)cc1 [doramapimod]
Procedure, shortened: as §1

[10] = compound: Cc1ccc(C(=O)N(CCCN)[C@@H](c2nc3cc(Cl)ccc3c(=O)n2Cc2ccccc2)C(C)C)cc1 [ispinesib]
Procedure, shortened: as §1

[11] = compound: Cc1ccc(NC(=O)c2ccc(CN3CC[C@H](N(C)C)C3)c(C(F)(F)F)c2)cc1Nc1nccc(-c2cncnc2)n1 [bafetinib]
Procedure, shortened: as §1

[12] = compound: Cc1cccc(CC(=O)N2CCc3c2ccc(-c2cn(C)c4ncnc(N)c24)c3F)n1
Procedure, shortened: as §1

[13] = compound: Cc1cn(-c2cc(NC(=O)c3ccc(C)c(Nc4nccc(-c5cccnc5)n4)c3)cc(C(F)(F)F)c2)cn1 [nilotinib]
Procedure, shortened: as §1

[14] = compound: Cc1nc(Nc2n[nH]c3c2CN(C(=O)N[C@H](CN(C)C)c2ccccc2)C3(C)C)c2sccc2n1
Procedure, shortened: as §1

[15] = compound: Cc1nc(Nc2ncc(C(=O)Nc3c(C)cccc3Cl)s2)cc(N2CCN(CCO)CC2)n1 [dasatinib]
Procedure, shortened: as §1

[16] = compound: Cc1ncc(-c2ccnc(Nc3ccc(S(C)(=O)=O)cc3)n2)n1C(C)C
Procedure, shortened: as §1

[17] = compound: Cn1cc(-c2ccc3c(c2)CCN3C(=O)Cc2cccc(C(F)(F)F)c2)c2c(N)ncnc21
Procedure, shortened: as §1

[18] = compound: Cn1cc(-c2ccc3nnc(C(F)(F)c4ccc5ncccc5c4)n3n2)cn1
Procedure, shortened: as §1

[19] = compound: Cn1cncc1[C@@](N)(c1ccc(Cl)cc1)c1ccc2c(c1)c(-c1cccc(Cl)c1)cc(=O)n2C [tipifarnib]
Procedure, shortened: as §1

[20] = compound: FC(F)(F)c1ccc(/C=C/c2nc(COc3ccc(CCCCn4ccnn4)cc3)co2)cc1 [mubritinib]
Procedure, shortened: as §1

Measured: log2 fold change

TPX2 (UniProt Q9ULW0)
inactive: [1] 0.007 | [2] -0.122 | [3] 0.032 | [4] 0.019 | [5] -0.049 | [6] -0.071 | [7] -0.047 | [8] -0.024 | [9] 0.041 | [10] -0.131 | [11] -0.013 | [12] -0.017 | [13] 0.025 | [14] 0.176 | [15] 0.159 | [16] -0.11 | [17] -0.025 | [18] -0.038 | [19] 0.1 | [20] -0.051

TNKS1BP1 (UniProt Q9C0C2)
inactive: [1] 0.021 | [2] 0.025 | [3] -0.023 | [4] 0.003 | [5] 0.018 | [6] 0.055 | [7] -0.033 | [8] -0.062 | [9] 0.008 | [10] 0.006 | [11] -0.039 | [12] -0.032 | [13] 0.051 | [14] 0.015 | [15] 0.018 | [16] -0.011 | [17] 0.016 | [18] 0.007 | [19] 0.016 | [20] 0.016

TSC22D2 (UniProt O75157)
inactive: [1] -0.071 | [2] 0.031 | [3] -0.045 | [4] -0.034 | [5] 0.093 | [6] 0.05 | [7] 0.053 | [8] -0.11 | [9] -0.004 | [10] 0.001 | [11] -0.075 | [12] -0.124 | [13] 0.032 | [14] 0.085 | [15] 0.01 | [16] -0.075 | [17] 0.035 | [18] 0.138 | [19] 0.099 | [20] 0.003

TPM3 isoform 2 (UniProt P06753)
inactive: [1] -0.02 | [2] 0 | [3] -0.019 | [4] -0.021 | [5] -0.022 | [6] -0.063 | [7] -0.046 | [8] -0.087 | [9] 0.007 | [10] 0.002 | [11] -0.03 | [12] -0.06 | [13] -0.004 | [14] -0.023 | [15] -0.017 | [16] -0.034 | [17] 0 | [18] 0.037 | [19] 0.202 | [20] 0.017

TRMT6 (UniProt Q9UJA5)
inactive: [1] -0.052 | [2] -0.053 | [3] -0.164 | [4] 0.326 | [5] -0.043 | [6] 0.111 | [7] -0.017 | [8] -0.019 | [9] 0.113 | [10] -0.221 | [11] -0.031 | [12] 0.03 | [13] -0.006 | [14] 0.022 | [15] 0.114 | [16] -0.029 | [17] -0.046 | [18] -0.028 | [19] 0.098 | [20] -0.059

TPD52L2 isoform 7 (UniProt O43399)
inactive: [1] -0.003 | [2] 0.012 | [3] 0.02 | [4] -0.041 | [5] -0.008 | [6] 0.007 | [7] -0.03 | [8] -0.04 | [9] 0 | [10] 0.017 | [11] -0.075 | [12] -0.043 | [13] 0.012 | [14] 0.012 | [15] 0.065 | [16] -0.011 | [17] -0.004 | [18] -0.03 | [19] 0.005 | [20] 0.037

TOP3B (UniProt O95985)
inactive: [1] -0.019 | [2] -0.04 | [3] -0.18 | [4] 0.193 | [5] -0.045 | [6] 0.024 | [7] -0.096 | [8] 0.074 | [9] 0.104 | [10] -0.113 | [11] 0.103 | [12] 0.051 | [13] -0.052 | [14] 0.073 | [15] -0.028 | [16] -0.026 | [17] -0.033 | [18] -0.112 | [19] 0.065 | [20] -0.053

TRAPPC5 (UniProt Q8IUR0)
inactive: [1] 0.102 | [2] -0.075 | [3] 0.064 | [4] -0.052 | [5] -0.041 | [6] -0.162 | [7] 0.033 | [8] 0.139 | [9] -0.034 | [10] -0.107 | [11] 0.02 | [12] 0.076 | [13] -0.061 | [14] -0.071 | [15] -0.101 | [16] -0.013 | [17] 0.066 | [18] -0.029 | [19] -0.044 | [20] 0.105

TOP2B (UniProt Q02880)
inactive: [1] 0.005 | [2] -0.125 | [3] -0.476 | [4] 0.583 | [5] -0.083 | [6] 0.16 | [7] 0.043 | [8] 0.04 | [9] 0.336 | [10] -0.33 | [11] 0.259 | [12] 0.097 | [13] -0.08 | [14] -0.032 | [15] 0.095 | [16] -0.063 | [17] -0.179 | [18] -0.298 | [19] 0.14 | [20] -0.231

2 entries drawn at random from those above, as already listed:
TOP3B (UniProt O95985)
inactive: [1] -0.019 | [2] -0.04 | [3] -0.18 | [4] 0.193 | [5] -0.045 | [6] 0.024 | [7] -0.096 | [8] 0.074 | [9] 0.104 | [10] -0.113 | [11] 0.103 | [12] 0.051 | [13] -0.052 | [14] 0.073 | [15] -0.028 | [16] -0.026 | [17] -0.033 | [18] -0.112 | [19] 0.065 | [20] -0.053

TOP2B (UniProt Q02880)
inactive: [1] 0.005 | [2] -0.125 | [3] -0.476 | [4] 0.583 | [5] -0.083 | [6] 0.16 | [7] 0.043 | [8] 0.04 | [9] 0.336 | [10] -0.33 | [11] 0.259 | [12] 0.097 | [13] -0.08 | [14] -0.032 | [15] 0.095 | [16] -0.063 | [17] -0.179 | [18] -0.298 | [19] 0.14 | [20] -0.231

(listing goes on)

TRMT1 (UniProt Q9NXH9)
inactive: [1] -0.001 | [2] 0.029 | [3] 0.022 | [4] 0 | [5] 0.02 | [6] 0.023 | [7] -0.042 | [8] -0.047 | [9] -0.035 | [10] 0.015 | [11] -0.04 | [12] -0.006 | [13] 0 | [14] -0.006 | [15] 0.011 | [16] -0.045 | [17] 0.02 | [18] 0.024 | [19] -0.035 | [20] 0.033

TOMM70 (UniProt O94826)
inactive: [1] -0.009 | [2] 0.019 | [3] 0.072 | [4] -0.012 | [5] 0.041 | [6] -0.042 | [7] -0.025 | [8] 0.053 | [9] -0.036 | [10] 0.04 | [11] 0.008 | [12] 0.029 | [13] -0.002 | [14] -0.027 | [15] -0.057 | [16] 0.026 | [17] 0.017 | [18] -0.011 | [19] -0.038 | [20] 0.01

TPRKB (UniProt Q9Y3C4)
inactive: [1] 0.027 | [2] 0.116 | [3] 0.048 | [4] -0.051 | [5] 0.015 | [6] 0 | [7] 0.027 | [8] 0.041 | [9] -0.016 | [10] 0.034 | [11] -0.025 | [12] 0.023 | [13] 0.023 | [14] 0.008 | [15] 0.026 | [16] 0.013 | [17] 0.027 | [18] 0.028 | [19] 0.019 | [20] 0.045

TRMT112 (UniProt Q9UI30)
inactive: [1] 0.011 | [2] 0.101 | [3] 0.111 | [4] -0.073 | [5] 0.154 | [6] 0.004 | [7] -0.095 | [8] 0.112 | [9] 0.034 | [10] -0.019 | [11] -0.023 | [12] -0.061 | [13] -0.014 | [14] -0.002 | [15] -0.081 | [16] -0.022 | [17] 0 | [18] 0.081 | [19] -0.099 | [20] -0.017

TRIM56 (UniProt Q9BRZ2)
inactive: [1] -0.021 | [2] -0.081 | [3] -0.161 | [4] 0.372 | [5] -0.084 | [6] 0 | [7] -0.05 | [8] 0.075 | [9] 0.156 | [10] -0.233 | [11] -0.183 | [12] -0.035 | [13] 0.057 | [14] 0.166 | [15] 0.047 | [16] -0.208 | [17] -0.275 | [18] -0.066 | [19] 0.195 | [20] -0.126

TOMM40 (UniProt O96008)
inactive: [1] -0.025 | [2] 0.012 | [3] -0.002 | [4] -0.054 | [5] 0.021 | [6] -0.03 | [7] 0.016 | [8] -0.002 | [9] 0.029 | [10] 0.013 | [11] 0.011 | [12] 0.015 | [13] -0.001 | [14] 0.026 | [15] 0.038 | [16] -0.025 | [17] 0.023 | [18] -0.002 | [19] -0.001 | [20] 0.029

TOX4 (UniProt O94842)
inactive: [1] -0.048 | [2] -0.007 | [3] -0.206 | [4] 0.242 | [5] -0.139 | [6] 0.178 | [7] -0.072 | [8] -0.052 | [9] 0.205 | [10] -0.121 | [11] 0.026 | [12] -0.118 | [13] -0.003 | [14] 0.039 | [15] 0.066 | [16] 0.013 | [17] -0.137 | [18] -0.117 | [19] 0.17 | [20] -0.1
